No constants are given. Whether binding was seen depends on the method and setting. Some binding calls cover weakened binding; strength is not graded here.
Molecular target: recombinant human TRAIL R2 (DR5)/Fc chimera (human) (UniProt O14763)
Experiment: phage ELISA on DR5/Fc

Sequences of proteins named here, by UniProt entry; tags and fusion partners are left off. A change or cut given only in a name is not applied to a line headed by its entry.
UniProt O14763: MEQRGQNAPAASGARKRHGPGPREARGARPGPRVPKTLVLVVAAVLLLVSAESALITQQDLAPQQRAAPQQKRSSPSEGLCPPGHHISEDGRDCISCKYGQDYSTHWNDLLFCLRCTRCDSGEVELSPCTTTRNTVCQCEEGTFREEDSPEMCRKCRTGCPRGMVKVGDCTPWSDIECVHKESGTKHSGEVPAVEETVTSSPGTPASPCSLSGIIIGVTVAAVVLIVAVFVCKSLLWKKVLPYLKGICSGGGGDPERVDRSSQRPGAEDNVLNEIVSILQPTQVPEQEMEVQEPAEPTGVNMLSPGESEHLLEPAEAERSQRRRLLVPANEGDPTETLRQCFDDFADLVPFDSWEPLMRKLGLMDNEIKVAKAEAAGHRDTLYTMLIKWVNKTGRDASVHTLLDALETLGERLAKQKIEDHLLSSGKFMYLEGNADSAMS

Row | Binder | binding
1 | ACFPIMTLHCGGG [088-13.1H3] | binds
2 | 029-15.A3C (designed binder, ATRIMER; also called 4a8c) EPPTQKPKKIVNAKKDVVNTKMFEELKSRLDTLAQEVALLKEQQALQTVCLKGTKVHMKCFLAFTQTKTFHEASEDCISRGGTLSTPQTGSENDALYEYLRQSVGNEAEIWLGLNRATLRPRWVDMTGARIAYKNWETEITAQPDGGKNCAVLSGAANGKWFDKRCRDQLPYICQFGIV | binds
3 | 029-15.A7D (designed binder) ALQTVCLKGTKVHMKCFLAFTQTKTFHEASEDCISRGGTLSTPQTGSENDALYEYLRQSVGNEAEIWLGLNRAMLRSRWVDMTGARIAYKNWETEITAQPDGGRWFQGKNCAVLSGAANGKWFDKRCRDQLPYICQFGIV | binds
4 | 029-15.A5A (designed binder) ALQTVCLKGTKVHMKCFLAFTQTKTFHEASEDCISRGGTLSTPQTGSENDALYEYLRQSVGNEAEIWLGLNRALFRPRWVDMTGARIAYKNWETEITAQPDGGPWYLKENCAVLSGAANGKWFDKRCRDQLPYICQFGIV | binds
5 | 029-15.A8G (designed binder, ATRIMER; also called 1a7b) EPPTQKPKKIVNAKKDVVNTKMFEELKSRLDTLAQEVALLKEQQALQTVCLKGTKVHMKCFLAFTQTKTFHEASEDCISRGGTLSTPQTGSENDALYEYLRQSVGNEAEIWLGLNRAWLRPRWVDMTGARIAYKNWETEITAQPDGGTLVSGENCAVLSGAANGKWFDKRCRDQLPYICQFGIV | binds
6 | 029-15.A1H (designed binder, ATRIMER; also called 8b6b) EPPTQKPKKIVNAKKDVVNTKMFEELKSRLDTLAQEVALLKEQQALQTVCLKGTKVHMKCFLAFTQTKTFHEASEDCISRGGTLSTPQTGSENDALYEYLRQSVGNEAEIWLGLNRAVLRPRWVDMTGARIAYKNWETEITAQPDGGWVLGGKNCAVLSGAANGKWFDKRCRDQLPYICQFGIV | binds
7 | 029-15.B3D (designed binder, ATRIMER; also called 9b3d) EPPTQKPKKIVNAKKDVVNTKMFEELKSRLDTLAQEVALLKEQQALQTVCLKGTKVHMKCFLAFTQTKTFHEASEDCISRGGTLSTPQTGSENDALYEYLRQSVGNEAEIWLGLNELRTDGLWVDMTGARIAYKNWETEITAQPDGGVMRRSENCAVLSGAANGKWFDKRCRDQLPYICQFGIV | binds
8 | 029-15.B9F (designed binder, ATRIMER; also called 2a1a) EPPTQKPKKIVNAKKDVVNTKMFEELKSRLDTLAQEVALLKEQQALQTVCLKGTKVHMKCFLAFTQTKTFHEASEDCISRGGTLSTPQTGSENDALYEYLRQSVGNEAEIWLGLNKRVWYRGWVDMTGARIAYKNWETEITAQPDGGMRRRRENCAVLSGAANGKWFDKRCRDQLPYICQFGIV | binds
9 | 029-15.B10A (designed binder) ALQTVCLKGTKVHMKCFLAFTQTKTFHEASEDCISRGGTLSTPQTGSENDALYEYLRQSVGNEAEIWLGLNRVIRRSMWVDMTGARIAYKNWETEITAQPDGGQKWMAENCAVLSGAANGKWFDKRCRDQLPYICQFGIV | binds
10 | 029-15.B2H (designed binder) ALQTVCLKGTKVHMKCFLAFTQTKTFHEASEDCISRGGTLSTPQTGSENDALYEYLRQSVGNEAEIWLGLNRVLQRPVWVDMTGARIAYKNWETEITAQPDGGMVWSMENCAVLSGAANGKWFDKRCRDQLPYICQFGIV | binds
11 | 029-15.B12H (designed binder) ALQTVCLKGTKVHMKCFLAFTQTKTFHEASEDCISRGGTLSTPQTGSENDALYEYLRQSVGNEAEIWLGLNRVQLRPRWVDMTGARIAYKNWETEITAQPEGGFRRHAKNCAVLSGAANGKWFDKRCRDQLPYICQFGIV | binds
12 | 029-15.A6C (designed binder) ALQTVCLKGTKVHMKCFLAFTQTKTFHEASEDCISRGGTLSTPQTGSENDALYEYLRQSVGNEAEIWLGLNRVVRLSEWVDMTGARIAYKNWETEITAQPDGGMLWAMENCAVLSGAANGKWFDKRCRDQLPYICQFGIV | binds
13 | 029-15.B3G (designed binder) ALQTVCLKGTKVHMKCFLAFTQTKTFHEASEDCISRGGTLSTPQTGSENDALYEYLRQSVGNEAEIWLGLNRVISAPVWVDMTGARIAYKNWETEITAQPDGGQQWAMENCAVLSGAANGKWFDKRCRDQLPYICQFGIV | binds
14 | 029-15.B12G (designed binder) ALQTVCLKGTKVHMKCFLAFTQTKTFHEASEDCISRGGTLSTPQTGSENDALYEYLRQSVGNEAEIWLGLNRVLRRPQWVDMTGARIAYKNWETEITAQPNGGDWRIPENCAVLSGAANGKWFDKRCRDQLPYICQFGIV | binds
15 | 029-15.A6B (designed binder) ALQTVCLKGTKVHMKCFLAFTQTKTFHEASEDCISRGGTLSTPQTGSENDALYEYLRQSVGNEAEIWLGLNRVMMRPRWVDMTGARIAYKNWETEITAQPDGGMWGAMENCAVLSGAANGKWFDKRCRDQLPYICQFGIV | binds
16 | 029-15.B4F (designed binder) ALQTVCLKGTKVHMKCFLAFTQTKTFHEASEDCISRGGTLSTPQTGSENDALYEYLRQSVGNEAEIWLGLNRVMRRVLWVDMTGARIAYKNWETEITAQPDGGRRETMKNCAVLSGAANGKWFDKRCRDQLPYICQFGIV | binds
17 | 029-15.A9G (designed binder) ALQTVCLKGTKVHMKCFLAFTQTKTFHEASEDCISRGGTLSTPQTGSENDALYEYLRQSVGNEAEIWLGLNRVMRRPLWVDMTGARIAYKNWETEITAQPDGGRGQQWENCAVLSGAANGKWFDKRCRDQLPYICQFGIV | binds
18 | 029-15.B11F (designed binder) ALQTVCLKGTKVHMKCFLAFTQTKTFHEASEDCISRGGTLSTPQTGSENDALYEYLRQSVGNEAEIWLGLNRVMRRREWVDMTGARIAYKNWETEITAQPDGAQLMALENCAVLSGAANGKWFDKRCRDQLPYICQFGIV | binds
19 | 029-15.B11C (designed binder) ALQTVCLKGTKVHMKCFLAFTQTKTFHEASEDCISRGGTLSTPQTGSENDALYEYLRQSVGNEAEIWLGLNRVWRRSLWVDMTGARIAYKNWETEITAQPDGGHLVKQKNCAVLSGAANGKWFDKRCRDQLPYICQFGIV | binds
20 | 029-15.A4G (designed binder) ALQTVCLKGTKVHMKCFLAFTQTKTFHEASEDCISRGGTLSTPQTGSENDALYEYLRQSVGNEAEIWLGLNKRRWYGGWVDMTGARIAYKNWETEITAQPDGGVNTVRENCAVLSGAANGKWFDKRCRDQLPYICQFGIV | binds
21 | 029-15.A9B (designed binder) ALQTVCLKGTKVHMKCFLAFTQTKTFHEASEDCISRGGTLSTPQTGSENDALYEYLRQSVGNEAEIWLGLNAVIRRPLWVDMTGARIAYKNWETEITAQPDGGMKYTMENCAVLSGAANGKWFDKRCRDQLPYICQFGIV | binds
22 | 029-15.B4H (designed binder) ALQTVCLKGTKVHMKCFLAFTQTKTFHEASEDCISRGGTLSTPQTGSENDALYEYLRQSVGNEAEIWLGLNELVTSRLWVDMTGARIAYKNWETEITAQPDGGVMQLGENCAVLSGAANGKWFDKRCRDQLPYICQFGIV | binds
23 | 029-15.B11G (designed binder) ALQTVCLKGTKVHMKCFLAFTQTKTFHEASEDCISRGGTLSTPQTGSENDALYEYLRQSVGNEAEIWLGLNELGTSRLWVDMTGARIAYKNWETEITAQPDGGVMQLGENCAVLSGAANGKWFDKRCRDQLPYICQFGIV | binds
24 | 029-15.B3A (designed binder) ALQTVCLKGTKVHMKCFLAFTQTKTFHEASEDCISRGGTLSTPQTGSENDALYEYLRQSVGNEAEIWLGLNFRGWLRWWVDMTGARIAYKNWETEITAQPDDGARVLAENCAVLSGAANGKWFDKRCRDQLPYICQFGIV | binds
25 | 029-15.B1A (designed binder) ALQTVCLKGTKVHMKCFLAFTQTKTFHEASEDCISRGGTLSTPQTGSENDALYEYLRQSVGNEAEIWLGLNGRLKGIGWVDMTGARIAYKNWETEITAQPDGGRPQWGENCAVLSGAANGKWFDKRCRDQLPYICQFGIV | binds
26 | 029-15.A4E (designed binder) ALQTVCLKGTKVHMKCFLAFTQTKTFHEASEDCISRGGTLSTPQTGSENDALYEYLRQSVGNEAEIWLGLNGVWQSFPWVDMTGARIAYKNWETEITAQPDGGLGYLRENCAVLSGAANGKWFDKRCRDQLPYICQFGIV | binds
27 | 029-15.B3E (designed binder) ALQTVCLKGTKVHMKCFLAFTQTKTFHEASEDCISRGGTLSTPQTGSENDALYEYLRQSVGNEAEIWLGLNHLVSLAPWVDMTGARIAYKNWETEITAQPDGGGMHQGKNCAVLSGAANGKWFDKRCRDQLPYICQFGIV | binds
28 | 029-15.A11H (designed binder) ALQTVCLKGTKVHMKCFLAFTQTKTFHEASEDCISRGGTLSTPQTGSENDALYEYLRQSVGNEAEIWLGLNHIFIDWGWVDMTGARIAYKNWETEITAQPDGGVMTMGENCAVLSGAANGKWFDKRCRDQLPYICQFGIV | binds
29 | 029-15.B4D (designed binder) ALQTVCLKGTKVHMKCFLAFTQTKTFHEASEDCISRGGTLSTPQTGSENDALYEYLRQSVGNEAEIWLGLNPVMRGVTWVDMTGARIAYKNWETEITAQPDGGRSWVWENCAVLSGAANGKWFDKRCRDQLPYICQFGIV | binds
30 | 029-15.A2E (designed binder) ALQTVCLKGTKVHMKCFLAFTQTKTFHEASEDCISRGGTLSTPQTGSENDALYEYLRQSVGNEAEIWLGLNQLVTVGPWVDMTGARIAYKNWETEITAQPDGGVMHRTENCAVLSGAANGKWFDKRCRDQLPYICQFGIV | binds

From US20120021995A1 (published 2012)
